Measured values: patent US20100317605A1, “THE USE OF EPIMEDIUM FLAVONES AND EFFECTIVE COMPONENTS THEREOF FOR THE PREPARATION OF MEDICAMENTS OF PROMOTING PROLIFERATIONS AND DIFFERENTIATIONS OF NERVE CELLS” (XUANWU HOSPITAL OF CAPITAL MEDICAL UNIVERSITY, priority 2007, published 2010)
Some entries share one result that the patent states for a list of compounds.

Test system: primary cultured neural stem cells (NSC)
Test: Survival and proliferation of primary cultured neural stem cells (neurospheres) in medium without growth factors
Assay type: cell-based, SD rats
Conditions: DMEM/F12 without growth factors, 7 days
Experimental: The brains were taken from neonatal 1 day SD rats under a sterile condition, and the hippocampi were isolated and placed in culture dish containing a small amount of high glucose DMEM/F12; the meninges and blood vessels were divested, and the tissue was cut into small pieces, added with 5 ml cell culture medium, lightly blown and beaten into cell suspension with flame polished Pasteur sucker, and filtered by 400 screen mesh. The ratio of living cells was counted by trypan-blue staining. After the counting, the cells were placed into a 25 ml culture flask at a density of 2×10^6 cells/ml. Basal culture medium DMEM/F12 (1:1), cofactor B27(2%) and growth factor EGF (20 ng/ml)+bFGF (10 ng)/ml) were needed for conventional culture of NSC, and the cells grew as floating spheres in the culture medium. In order to observe the effect of different concentrations of epimedium flavanoide and its effective ingredient […] on primary cultured NSC, basal culture medium DMEM/F12 (1:1) and B27(2%) were used without growth factor, and epimedium flavanoide or […] final concentration of 10, 50, 100, 200, 400 μg/ml was added respectively. Cultures were maintained at 37° C. in a humidified atmosphere of 95% air/5% CO2. The growth state of the cells was observed under inverted microscope, and the diameter of the neurospheres was measured by micro ruler. […]

SMILES: COc1ccc(-c2oc3c(CC=C(C)C)c(OC4OC(CO)C(O)C(O)C4O)cc(O)c3c(=O)c2OC2OC(C)C(O)C(O)C2O)cc1 (stereo not shown) [icarrin, 3-((6-deoxymannopyranosyl)oxo)-7-(pyranoglucosyloxo)-5-hydroxy-2-(4-methoxyphenyl)-8-(3-methyl-2-butenyl)-4H-1-benzopyran-4-one]
- concentration group with the best cell growth: 200 to 400 µg/mL
